{
  "source": "PubChem BioAssay AID504648",
  "about": "(National Center for Advancing Translational Sciences (NCATS), 2011)",
  "note": "About 610 (0.16%) of roughly 390,000 compounds were called active. The shares of active, inactive and inconclusive entries below differ from those in the screen. The call rests on the fitted dose curve; in most records, active means well fitted inhibition curve with a large enough effect; inconclusive means small, poorly fitted or top-dose-only effect, or effect the other way, or another doubt; inactive means no such curve, though single readings can be large or run the other way. Potencies beside an inconclusive call are fits to weak or partial responses and may not hold up. On the % scale 0 is the no-effect control and ±100 the full control effect; potency means the concentration at half of the fitted maximal effect.",
  "data": [
    {"experiment": "Nrf2 qHTS screen for inhibitors: counterscreen for cytotoxicity", "details": "A549 ARE-Fluc cells, CellTiter-Fluor viability, 18-24 h; activity change, negative = cytotoxicity: at 46 µM (top of the series)", "procedure,_shortened": "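Cytotoxicity counterscreen: CellTiter-Fluor fluorescence was measured in A549 ARE_Fluc cells after 18-24 h of compound exposure in a concentration series. The subsequent BugLite luminescent read reports ARE-luciferase activity.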", "values": [
      {"smiles": "Cc1ccc(-c2nc(C(Cl)Cl)c3ccccc3n2)cc1", "Potency": "inconclusive: 29.1 µM [falling, single point]"},
      {"smiles": "CCCn1c(-c2ccc(OC)cc2)nc2nc3ccccc3nc21", "Potency": "inactive"},
      {"smiles": "S=C1NCCOCCOCCOCCN1", "Potency": "inconclusive: 32.6 µM [activator, partial curve, poor fit]"},
      {"smiles": "CCc1ccc(NC(=O)c2ccc(CN3C(=O)C(C)=C(c4ccc(C)cc4)S3(=O)=O)cc2)cc1", "activity change, negative = cytotoxicity": "inconclusive: -56.1% [activator]"},
      {"smiles": "O=c1n(CC2CO2)c(=O)n(CC2CO2)c(=O)n1CC1CO1", "note": "(configuration not stated)", "Potency": "inconclusive: 29.1 µM [falling, single point]"},
      {"smiles": "CCOc1ccc(NC(=O)C(=O)N/N=C/c2ccccc2F)cc1", "Potency": "inactive"},
      {"smiles": "CC(=O)N(C)C1=C(N2CCOCC2)C(=O)c2ccccc2C1=O", "Potency": "active: 8.2 µM"},
      {"smiles": "O=C(CN(Cc1ccc2c(c1)OCO2)C(=O)CNC(=O)c1ccco1)NC1CCCCC1", "Potency": "inconclusive: 7.31 µM [falling, partial curve, poor fit]"},
      {"smiles": "O=C(Nc1ccccc1N1CCN(c2ccccc2)CC1)C12CC3CC(CC(C3)C1)C2", "Potency": "inconclusive: 6.51 µM [activator, partial curve, poor fit]"},
      {"smiles": "CC(C)(C)N(NC(=O)Nc1ccc(Cl)c(Cl)c1)C(=O)c1ccccc1", "Potency": "inconclusive: 32.6 µM [falling, single point]"},
      {"smiles": "CCN1CCN(c2nnc(-c3ccccc3)c3ccccc23)CC1", "Potency": "inactive"},
      {"smiles": "S=C(Nc1ccc(Cl)cc1)N1CCN(C2CCCCC2)CC1", "Potency": "inconclusive: 29.1 µM [activator, partial curve, poor fit]"},
      {"smiles": "COc1cc(OC)cc(-n2c(=O)c3ccccc3n(CC(=O)NCCc3ccc(OC)c(OC)c3)c2=O)c1", "Potency": "inactive"},
      {"smiles": "O=C(c1cc(-c2ccc(O)cc2)on1)N1CCN(c2ccc(F)cc2)CC1", "Potency": "inconclusive: 14.6 µM [falling, partial curve, poor fit]"},
      {"smiles": "O=C(NC(=S)Nc1ccc(Cl)cn1)C(c1ccccc1)c1ccccc1", "Potency": "inconclusive: 29.1 µM [falling, single point]"},
      {"smiles": "COc1ccc(C2c3c(ncn(CCCO)c3=N)Oc3ccc4ccccc4c32)cc1OC", "note": "(configuration not stated)", "Potency": "inconclusive: 18.4 µM [falling, single point]"},
      {"smiles": "CC(C)(C)NC(=O)C12CCC(C)(c3nc4ccccc4nc31)C2(C)C", "note": "(configuration not stated)", "Potency": "inconclusive: 25.9 µM [falling, single point]"},
      {"smiles": "CSC(SC)=C(C#N)C(=O)c1ccccc1", "Potency": "inconclusive: 20.6 µM [falling, single point]"},
      {"smiles": "COc1ccc(-c2cc(C(F)F)n3ncc(C(=O)Nc4cccc(S(=O)(=O)N5CCOCC5)c4)c3n2)cc1", "Potency": "inactive"},
      {"smiles": "COc1ccc(Nc2c([N+](=O)[O-])ccc3c2=NC2(CCCCC2)N=3)cc1", "Potency": "inconclusive: 20.6 µM [falling, single point]"},
      {"smiles": "CC(=O)C1=C(C)NC(SCC(=O)c2ccc(Cl)cc2)=C(C#N)C1CC(C)C", "note": "(configuration not stated)", "Potency": "inactive"},
      {"smiles": "COc1ccc(-c2ccc([C@H]3[C@@H]4C=CCC[C@@]4(C)C(=O)N3Cc3ccccc3)c(F)c2)cc1", "Potency": "inactive"},
      {"smiles": "COc1ccccc1-n1c(SC)nc2c(sc(=S)n2-c2ccccc2)c1=O", "Potency": "inactive"},
      {"smiles": "COc1cccc(/C(C#N)=C/c2c(-c3ccc(Cl)cc3)nc3c(C)cccn23)c1", "Potency": "inconclusive: 20.6 µM [falling, partial curve, poor fit]"},
      {"smiles": "CCCCCCC(O)(c1ccccc1)C(CN1CCOCC1)c1ccccc1", "note": "(configuration not stated)", "Potency": "inactive"},
      {"smiles": "Cn1c(=O)c2c(nc(NC3CCCCC3)n2Cc2ccccc2)n(C)c1=O", "Potency": "inactive"},
      {"smiles": "Cc1cccc(N2CCN(C(=O)CSc3nc4ccccc4nc3N3CC(C)OC(C)C3)CC2)c1C", "note": "(configuration not stated)", "Potency": "inconclusive: 5.17 µM [falling, single point]"},
      {"smiles": "O=[N+]([O-])c1ccc(S(=O)(=O)N2CCN(c3nc(-c4ccccc4)nc4ccccc34)CC2)cc1", "Potency": "inactive"},
      {"smiles": "COc1cc(OC)c2c(-c3cccc(-c4ccc(OC)c(OC)c4)c3)cc(=O)oc2c1", "Potency": "inactive"},
      {"smiles": "COc1ccccc1C(=O)O/N=C(\\N)c1ccccc1Cl", "Potency": "inconclusive: 5.8 µM [falling, partial curve, poor fit]"},
      {"smiles": "CC1(c2ccccc2)O[C@@H]2C[C@H]3[C@@H]4CCC5=CC(=O)C=C[C@]5(C)[C@@]4(F)[C@@H](O)C[C@]3(C)[C@]2(C(=O)CO)O1", "note": "(some centres not stated)", "Potency": "inactive"},
      {"smiles": "CCOc1ccccc1C(=O)Nc1ccc(S(=O)(=O)N2CCOCC2)cc1", "Potency": "inconclusive: 29.1 µM [falling, partial curve, poor fit]"},
      {"smiles": "Cn1c(=O)cc(SCC(=O)Nc2cccnc2)c2ccccc21", "Potency": "inactive"},
      {"smiles": "CCOC(=O)c1nn(-c2ccc(F)cc2)c(=O)c(C#N)c1C", "Potency": "inconclusive: 0.731 µM [activator, full curve, poor fit]"},
      {"smiles": "Cc1ccc(C(=O)c2sc(Nc3ccccc3)c(C#N)c2N)cc1", "Potency": "inconclusive: 29.1 µM [falling, single point]"},
      {"smiles": "CCS(=O)(=O)Nc1ccc(C2=NN(C(=O)c3ccco3)C(c3ccc(Cl)o3)C2)cc1", "note": "(configuration not stated)", "Potency": "inactive"},
      {"smiles": "CCc1ccc(-c2nc(SCC(=O)NCCOC)c(-c3ccc(C)cc3)[nH]2)cc1", "Potency": "inactive"},
      {"smiles": "CC1(C)C(C=C(Cl)Cl)C1C(=O)N(Cc1ccc(Cl)cc1)C1CCS(=O)(=O)C1", "note": "(configuration not stated)", "Potency": "inconclusive: 29.1 µM [falling, partial curve, poor fit]"},
      {"smiles": "CCn1cc(C(=O)NCC2CCCO2)c(=O)c2cc(S(=O)(=O)N(C)C3CCCCC3)ccc21", "note": "(configuration not stated)", "Potency": "inactive"},
      {"smiles": "C/C=C1\\COC(C(=O)NCc2ccncc2)(C(F)(F)F)C=C1C=C1CCCCC1", "note": "(configuration not stated)", "Potency": "inconclusive: 20.6 µM [falling, single point]"},
      {"smiles": "C=CCn1c(C2CC2)n[nH]c1=S", "Potency": "inconclusive: 29.1 µM [activator, single point]"},
      {"smiles": "O=S(=O)(NCCc1ccc(F)cc1)c1ccc(F)cc1Br", "Potency": "inactive"},
      {"smiles": "Cc1ccccc1OCC(=O)Nc1cc(S(=O)(=O)N2CCCCC2)ccc1N1CCN(C)CC1", "Potency": "inconclusive: 29.1 µM [falling, partial curve, poor fit]"},
      {"smiles": "Cc1ccc(NC(=O)OC(C)N2CCCCC2)cc1NC(=O)OC(C)N1CCCCC1", "note": "(configuration not stated)", "Potency": "inconclusive: 18.4 µM [falling, single point]"},
      {"smiles": "CCOc1ccc(CNC(=O)C2Cc3ccccc3N2C(=O)CC)cc1", "note": "(configuration not stated)", "Potency": "inactive"},
      {"smiles": "c1ccc(N2N=C(c3cccs3)CC2c2ccco2)cc1", "note": "(configuration not stated)", "Potency": "inconclusive: 18.4 µM [activator, single point]"},
      {"smiles": "COc1ccc(Nc2c3c(nc4ccc(NC(=O)/C=C/c5cccc(OC)c5OC)cc24)CCCC3)cc1OC", "Potency": "inconclusive: 25.9 µM [falling, single point]"},
      {"smiles": "COC(=O)c1ccc(C2NC(c3ccc4c(c3)OCO4)=CC(c3ccccc3O)N2)cc1", "note": "(configuration not stated)", "Potency": "inactive"},
      {"smiles": "CCNc1cc2oc(=O)c(CN3CCOCC3)c(C)c2cc1C", "Potency": "inconclusive: 13 µM [activator, partial curve]"},
      {"smiles": "Cn1nnnc1Sc1ncnc2scc(-c3ccc(Cl)cc3)c12", "Potency": "inconclusive: 29.1 µM [falling, single point]"},
      {"smiles": "COC(=O)c1cc(=O)n(Cc2ccco2)c(=Nc2ccc(F)c(Cl)c2)s1", "Potency": "inconclusive: 29.1 µM [falling, single point]"},
      {"smiles": "CCn1c(/C(C#N)=C/c2ccccc2Cl)nc2ccccc21", "Potency": "inactive"},
      {"smiles": "Cc1ccc(NC(=O)C2CCCCC2C(=O)O)cc1C", "note": "(configuration not stated)", "Potency": "inconclusive: 18.4 µM [falling, partial curve, poor fit]"},
      {"smiles": "COc1ccc(C(=O)NCCn2cc(SCc3cc(C)ccc3C)c3ccccc32)cc1", "Potency": "inconclusive: 20.6 µM [falling, single point]"},
      {"smiles": "CC(C)(C)OC(=O)NCCCC[C@H](NC(=O)c1nc[nH]c1C(=O)NCc1ccccc1)C(=O)OC(C)(C)C", "Potency": "inconclusive: 25.9 µM [falling, single point]"},
      {"smiles": "COc1cc(C(C)=O)ccc1OCCCN1CCC(Cc2ccccc2)CC1", "Potency": "inactive"},
      {"smiles": "Cc1cc(NC(=O)CC2CCCC2)n(-c2nc3ccccc3[nH]2)n1", "Potency": "inconclusive: 29.1 µM [falling, partial curve, poor fit]"},
      {"smiles": "COc1ccc(C(=O)NNC(=S)NC2CCCCC2)cc1OC", "Potency": "inconclusive: 20.6 µM [activator, partial curve, poor fit]"},
      {"smiles": "COc1ccc2sc(/C=C/c3ccccc3O)[n+](C)c2c1", "Potency": "inactive"},
      {"smiles": "COc1ccc(-n2c(-c3ccco3)nc3c(cnn3-c3ccccc3C)c2=O)cc1", "Potency": "inactive"},
      {"smiles": "CCc1ccc(C2=NNC(=Nc3cccc(S(=O)(=O)N(C)C)c3)SC2)cc1", "Potency": "inconclusive: 18.4 µM [falling, single point]"},
      {"smiles": "CCOc1ncccc1C(=O)OCCCC(=O)c1ccc(Br)cc1", "Potency": "inconclusive: 6.51 µM [falling, partial curve, poor fit]"},
      {"smiles": "COc1ccc(Cl)cc1NC(=O)Cn1cnc2c1c(=O)n(C)c(=O)n2C", "Potency": "inconclusive: 8.2 µM [falling, partial curve, poor fit]"},
      {"smiles": "COc1cccc(NC(=S)C(C#N)=C2N(C)c3ccccc3N2C)c1", "Potency": "inconclusive: 25.9 µM [activator, partial curve, poor fit]"},
      {"smiles": "COc1ccc(N(C)S(=O)(=O)c2ccc(Cl)c(C(=O)NCCc3ccc(Cl)cc3)c2)cc1", "Potency": "inconclusive: 6.51 µM [activator, partial curve, poor fit]"},
      {"smiles": "COc1cccc2c1C(=N)c1c(O)c3c(c(O)c1C2=O)CC(O)(C(C)=O)CC3OC1CC(N)C(O)C(C)O1", "note": "(configuration not stated)", "Potency": "inconclusive: 14.6 µM [falling, partial curve]"},
      {"smiles": "C/C(=N/Nc1ccc([N+](=O)[O-])cc1)c1c[nH]c2ccccc12", "Potency": "inconclusive: 18.4 µM [falling, single point]"}
    ]}
  ]
}
